Source: the supplement of paper PMC10735217
Structures can show the parent of a compound that is named as a salt. Some of the results follow. Single values are uncertain here, since repeats match poorly.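 Human kidney-derived cells stably carry a construct in which eight TEAD-binding elements drive luciferase, measured by luminescence in a drug-repurposing library screen. A hit is any compound whose signal exceeds the plate mean by more than five robust Z scores.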

System: HEK293A TEAD-LUC reporter
Assay: TEAD-luciferase reporter activity (YAP activation), robust Z score vs plate; higher = stronger YAP/TEAD activation
Settings: 24 h

SMILES | TEAD-luciferase reporter activity (compound concentration: 200 nM) | TEAD-luciferase reporter activity (compound concentration: 2 uM) | TEAD-luciferase reporter activity (compound concentration: 10 uM)
O=C(O)[C@@H]1CCCN1 [proline] | inactive: -1.02 | inactive: -1.23 | inactive: 1.15
CC(NC(=O)C1CSCN1C(=O)c1ccccc1)c1ccccc1 (stereo unspecified) | inactive: -0.53 | inactive: -1.42 | inactive: 1.5
O=C1NCc2ccccc2CC12CCCCN2CC1CCOCC1 (stereo unspecified) | inactive: 0.262 |  | 
CC(C)C(=O)OCC(=O)[C@@]12OC(C3CCCCC3)O[C@@H]1C[C@H]1[C@@H]3CCC4=CC(=O)C=C[C@]4(C)[C@H]3[C@@H](O)C[C@@]12C (stereo partly specified) [Ciclesonide] | inactive: 0.49 | inactive: 0.406 | inactive: -0.852
Cc1cc(-c2ccccc2[C@@H](C)OC[C@H](O)CNC(C)(C)Cc2ccc(Cl)c(F)c2)ccc1C(=O)O [Encaleret sulfate] | inactive: 1.77 | inactive: -0.275 | inactive: -0.662
CNC(=O)c1cc(Oc2ccc(NC(=O)Nc3cc(C(C)(C)C)nn3-c3ccc4ncccc4c3)c(F)c2)ccn1 [DCC-2036 (Rebastinib)] | inactive: -0.0388 |  | inactive: -3.55
CNC(=O)c1cc(Oc2ccc(NC(=O)Nc3cc(C(C)(C)C)nn3-c3ccc4ncccc4c3)c(F)c2)ccn1 [rebastinib] |  | inactive: -2.66 | 
CC1(C)CN(C(=O)c2ccc(-c3cccc4nc(NC(=O)C5CC5)nn34)cc2)C1 [Solcitinib] | inactive: 0.132 | inactive: -1.76 | inactive: 1.91
CCc1nc2cc(N3CCSCC3)nc(CC)n2n1 | inactive: -0.643 | inactive: -0.0572 | inactive: -0.887
Nc1ccc(S(=O)(=O)Nc2ccnn2-c2ccccc2)cc1 [Sulfaphenazole] |  | inactive: -1.86 | 
Nc1ccc(S(=O)(=O)Nc2ccnn2-c2ccccc2)cc1 | inactive: -0.332 |  | active: 5.11
CN1CCCCC1CCc1ccccc1NC(=O)/C=C/c1ccccc1 (stereo unspecified) | inactive: 0.0513 | inactive: 0.591 | inactive: -1.04
CC[C@H]1NC(=O)c2cccc(c2)CNC(=O)[C@H](CC(=O)O)NC(=O)CNC(=O)[C@H](CCCNC(=N)N)N(C)C1=O | inactive: 0.544 | inactive: -1.21 | inactive: 1.4
O=C(c1ccc(F)cc1)c1ccccc1F [2,4'-Difluorobenzophe] | inactive: -1.27 | inactive: 0.0884 | inactive: -0.27
C[C@]12CC[C@@H]3c4ccc(O)cc4CC[C@H]3[C@@H]1CC[C@@H]2OC(=O)CCc1ccccc1 | inactive: 0.0417 |  | inactive: 0.599
C[C@]12CC[C@@H]3c4ccc(O)cc4CC[C@H]3[C@@H]1CC[C@@H]2OC(=O)CCc1ccccc1 [Estradiol 17-phenylpropionate] |  | inactive: -0.538 | 
Cc1cc(C)c(CN2CCCC23Cc2ccccc2CNC3=O)c(C)c1 (stereo unspecified) | inactive: -1.7 |  | inactive: -0.87
CN(C(=O)CCCOc1ccc2c(c1)CN1CC(=O)NC1=N2)C1CCCCC1 [lixazi] | inactive: -0.79 | inactive: -1.14 | inactive: -0.217
O=C(NCCC1CCCCC1)c1c[nH]c2ncccc12 | inactive: 1.3 |  | inactive: -0.0472
CC(C)(C)NCC(O)c1ccc(O)c(CS(C)(=O)=O)c1 (stereo unspecified) | inactive: -1.12 | inactive: -0.451 | inactive: -0.617
CN(C)c1ccc(O)c2c1CC1CC3C(N(C)C)C(O)=C(C(N)=O)C(=O)C3(O)C(O)=C1C2=O (stereo unspecified) [minocycline, Foamix] | inactive: -0.786 | inactive: -0.523 | inactive: 1.26
CN(C1CCN(c2ccc(C(=O)N3C[C@H]4CC[C@H](CC4)C3)cc2)C1)S(=O)(=O)Cc1ccccc1 (stereo partly specified) | inactive: 0.0101 | inactive: -1.13 | inactive: 0.416
O=P(O)(O)C(O)(Cn1ccnc1)P(=O)(O)O [Zoledronic Acid (Zoledronate)] | inactive: -1.35 |  | inactive: -0.447
O=P(O)(O)C(O)(Cn1ccnc1)P(=O)(O)O [zoledronic acid] |  | inactive: -2.05 | 
O=C(O)Cc1ccc(OCCNC[C@H](O)c2ccccc2)cc1 [Talibegron hydrochloride] | inactive: -0.688 | inactive: -0.842 | inactive: 1.69
COc1cccc2c(N3CCc4ccccc4C3C)nc(Nc3ccc(F)cc3C)nc12 (stereo unspecified) | inactive: -1.29 | inactive: -1.03 | inactive: -0.529

SMILES | TEAD-luciferase reporter activity (compound concentration: 200 nM) | TEAD-luciferase reporter activity (compound concentration: 2 uM) | TEAD-luciferase reporter activity (compound concentration: 10 uM)
Cc1ncc(CO)c(CN)c1O [pyridoxamine dihydrochloride] | inactive: 1.76 | inactive: -0.0193 | inactive: -1.15
CCc1ccc(C[C@@H]2NC(=O)CCSCC[C@@H](C(=O)N3CCC[C@H]3C(=O)N[C@@H](CC(C)C)C(=O)NCC(N)=O)NC(=O)[C@H](CC(N)=O)NC(=O)[C@H](CCC(N)=O)NC(=O)[C@H]([C@@H](C)CC)NC2=O)cc1 [nacartocin] | inactive: -0.498 | inactive: -0.672 | inactive: -0.973
CC(=O)N(C)Cc1c(-c2ccc(Cl)cc2)nc2ccccn12 | inactive: -0.409 | inactive: -0.527 | inactive: -0.553
O=C(NC(Cc1ccc(-c2nccs2)cc1)C(=O)O)C(CS)Cc1ccccc1 (stereo unspecified) | inactive: -1.24 | inactive: -1.88 | inactive: 3.31
COCc1nnc(N2CC(Oc3ccc(F)cc3Cl)C2)n1-c1ccc(OC)nc1 | active: 15.9 | inactive: -0.483 | inactive: -1.41
Cc1cc(OCCO)ccc1-c1cccc(COc2ccc(Cn3oc(=O)[nH]c3=O)cc2)c1 | inactive: -1.1 | inactive: -0.181 | inactive: 0.256
CC(C)(C)OC(=O)N[C@@H](Cc1ccccc1)[C@@H](O)C[C@@H](Cc1ccc(OCCN2CCOCC2)cc1)C(=O)N[C@H]1c2ccccc2C[C@H]1O | inactive: 0.718 | inactive: -0.919 | inactive: -1.84
CNCC(O)c1ccc(OC(=O)C(C)(C)C)c(OC(=O)C(C)(C)C)c1 (stereo unspecified) [dipivefrin] | inactive: 3.09 | inactive: -1.57 | inactive: 3.78
CNCC(O)c1ccc(OC(=O)C(C)(C)C)c(OC(=O)C(C)(C)C)c1 (stereo unspecified) [Dipivefrin Hydrochloride] |  | inactive: -0.589 | 
O=C(Nc1c(Br)cc(Br)cc1CN[C@H]1CC[C@H](O)CC1)c1cccs1 [Neltenexine hydrochloride] | inactive: 0.517 | inactive: -0.594 | inactive: 0.602
CNCC(=O)N[C@@H](CCCNC(=N)N)C(=O)N[C@H](C(=O)N[C@@H](Cc1ccc(O)cc1)C(=O)N[C@H](C(=O)N[C@@H](Cc1c[nH]cn1)C(=O)N1CCC[C@H]1C(=O)N[C@@H](C)C(=O)O)C(C)C)C(C)C [saralasin, Bayer Schering] | inactive: -1.15 |  | inactive: -0.708
CNCC(=O)N[C@@H](CCCNC(=N)N)C(=O)N[C@H](C(=O)N[C@@H](Cc1ccc(O)cc1)C(=O)N[C@H](C(=O)N[C@@H](Cc1c[nH]cn1)C(=O)N1CCC[C@H]1C(=O)N[C@@H](C)C(=O)O)C(C)C)C(C)C [saralasin] |  | inactive: -2.23 | 
CNc1cc2[nH]c(=O)n(-c3ccc(NC(=O)NS(=O)(=O)c4ccc(Cl)s4)cc3)c(=O)c2cc1F [Elinogrel potassium] | inactive: -1.58 | inactive: -0.0598 | inactive: -0.958
COc1nc(N)nc2c1ncn2[C@@H]1O[C@H](COP(=O)(N[C@@H](C)C(=O)OCC(C)(C)C)Oc2cccc3ccccc23)[C@@H](O)[C@@]1(C)O (stereo partly specified) | inactive: -1.45 | inactive: -1.48 | inactive: 0.327
CCN1CC/C(=C\c2cc(C(C)(C)C)c(O)c(C(C)(C)C)c2)S1(=O)=O | inactive: -0.234 | inactive: -0.0379 | inactive: 0.918
Cc1nc2cccc(C(F)(F)F)c2c(=O)n1-c1ccc(OCCCN2CCCC2)cc1 | inactive: -0.889 | inactive: -0.237 | inactive: -1.04
[N-]=[N+]=N[C@H]1C[C@H](n2ccc(=O)[nH]c2=O)O[C@@H]1CO [Navuridine] | inactive: 1.06 | inactive: -0.918 | inactive: -0.614
C#CCN(C)CCCOc1ccc(Cl)cc1Cl [Clorgiline (hydrochloride)] |  | inactive: -0.724 | 
C#CCN(C)CCCOc1ccc(Cl)cc1Cl | inactive: -1.01 |  | inactive: 1.38
CN1CCC(C(=O)N2Cc3ccccc3CC3(CCCCN3CC3CCNCC3)C2)CC1 (stereo unspecified) | inactive: 0.705 |  | inactive: 1.74
CNC(=O)c1ccc(-c2cnc3ncc(Cc4ccc5ncccc5c4)n3n2)cc1F [capmatinib] | inactive: -1.97 | inactive: -0.311 | inactive: -0.121
O=C(O)C(Cl)(Cl)CCCCCCCCCCc1ccc(Cl)cc1 | inactive: -2.04 | inactive: -0.156 | inactive: -0.996
Cn1c(=O)c2c(ncn2CCCN[C@H]2CO[C@H]3[C@@H]2OC[C@@H]3O[N+](=O)[O-])n(C)c1=O [teopranitol] | inactive: 3.45 | inactive: -1 | inactive: 1.23
Cc1nc2c([nH]1)c(=O)n(C)c(=O)n2CC1CC=CCC1 (stereo unspecified) | inactive: -0.581 | inactive: 0.316 | inactive: -1.35
C[C@@H](C(O)(Cn1cncn1)c1ccc(F)cc1F)S(C)(=O)=O (stereo partly specified) [genaconazole] | inactive: 1.78 | inactive: -1 | inactive: -1.06
CCOC(=O)c1cccc(N)c1 [Tricaine] | inactive: 1.65 | inactive: -0.114 | inactive: 0.205

Copied from the list.
TEAD-luciferase reporter activity (compound concentration: 200 nM) with CC(=O)N(C)Cc1c(-c2ccc(Cl)cc2)nc2ccccn12 is entered as inactive: -0.409
TEAD-luciferase reporter activity (compound concentration: 2 uM) with O=C(O)C(Cl)(Cl)CCCCCCCCCCc1ccc(Cl)cc1 is entered as inactive: -0.156
TEAD-luciferase reporter activity (compound concentration: 2 uM) with Cc1cc(OCCO)ccc1-c1cccc(COc2ccc(Cn3oc(=O)[nH]c3=O)cc2)c1 is entered as inactive: -0.181
